At least one compound was matched to its structure with a doubt left.
Tested on: HT-22, an immortalized mouse hippocampal cell line
Experiment: Neuroprotection of HT-22 cells against toxic insults (calcein viability assay)
Type: cell-based
Description: It is known (P. Aoun, 2003 Eur. J. Pharm. 472:65-71) that Peroxisome proliferator-activated receptors (PPARs) are involved in regulating many metabolic and inflammatory processes. The present invention explores the role of PPAR ligands in protecting neuronal cultures from toxic insults. For that purpose, the new PPAR agonists described in Example 1 were screened for their potential role as neuroprotective compounds. Experiments were performed using HT-22, an immortalized mouse hippocampal cell line, and SK-N-SH, a human neuroblastoma cell line. HT-22 was selected because it expresses PPARγ receptors. Cell viability against glutamate, hydrogen peroxide (H2O2), and serum deprivation insults was determined using a calcein assay. […] Additionally, compounds were protective even when administered simultaneously with glutamate, or for up to 8 h postglutamate insult.
HT-22, an immortalized mouse hippocampal cell line, and SK-N-SH, a human neuroblastoma cell line, were used. HT-22 cells were obtained from David Schubert (Salk Institute, San Diego, Calif.). The HT-22 line was originally selected from HT-4 cells based on glutamate sensitivity. SK-N-SH cells were obtained from ATCC (Manassas, Va.). […]

With `Cc1c(C)c2c(c(C)c1O)CCC(C)(COc1ccc(CC3SC(=O)NC3=O)cc1)O2` (centres unmarked) [Troglitazone, reference compound] the “neuroprotection from H2O2 insult” value was “dose-dependent neuroprotection” and the “neuroprotection from glutamate insult” value was “dose-dependent neuroprotection”.
